Reference: publication PMC4443662
Results are given in words; binding and its absence hold for the method and conditions named. In cells and extracts the contact can be indirect. Some binding calls cover weakened binding; strength is not graded here.

By UniProt entry, the sequences of proteins in these tests, tags left out.
UniProt O96013: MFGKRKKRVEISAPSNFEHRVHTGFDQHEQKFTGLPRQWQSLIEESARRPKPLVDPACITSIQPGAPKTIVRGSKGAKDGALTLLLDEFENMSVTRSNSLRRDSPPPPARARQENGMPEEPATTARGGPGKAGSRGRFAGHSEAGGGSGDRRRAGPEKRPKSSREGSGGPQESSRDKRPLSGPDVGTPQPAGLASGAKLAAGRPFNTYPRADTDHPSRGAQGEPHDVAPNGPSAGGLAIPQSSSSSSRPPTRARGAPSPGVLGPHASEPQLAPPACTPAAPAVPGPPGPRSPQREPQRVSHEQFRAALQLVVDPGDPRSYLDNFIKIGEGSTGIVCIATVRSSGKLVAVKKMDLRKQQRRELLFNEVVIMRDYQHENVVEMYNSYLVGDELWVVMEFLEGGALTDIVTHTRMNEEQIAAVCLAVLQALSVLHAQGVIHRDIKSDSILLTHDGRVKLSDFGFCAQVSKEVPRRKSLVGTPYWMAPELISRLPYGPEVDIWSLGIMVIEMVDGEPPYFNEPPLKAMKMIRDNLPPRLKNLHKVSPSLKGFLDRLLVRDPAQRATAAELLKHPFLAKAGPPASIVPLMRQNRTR
UniProt P53667: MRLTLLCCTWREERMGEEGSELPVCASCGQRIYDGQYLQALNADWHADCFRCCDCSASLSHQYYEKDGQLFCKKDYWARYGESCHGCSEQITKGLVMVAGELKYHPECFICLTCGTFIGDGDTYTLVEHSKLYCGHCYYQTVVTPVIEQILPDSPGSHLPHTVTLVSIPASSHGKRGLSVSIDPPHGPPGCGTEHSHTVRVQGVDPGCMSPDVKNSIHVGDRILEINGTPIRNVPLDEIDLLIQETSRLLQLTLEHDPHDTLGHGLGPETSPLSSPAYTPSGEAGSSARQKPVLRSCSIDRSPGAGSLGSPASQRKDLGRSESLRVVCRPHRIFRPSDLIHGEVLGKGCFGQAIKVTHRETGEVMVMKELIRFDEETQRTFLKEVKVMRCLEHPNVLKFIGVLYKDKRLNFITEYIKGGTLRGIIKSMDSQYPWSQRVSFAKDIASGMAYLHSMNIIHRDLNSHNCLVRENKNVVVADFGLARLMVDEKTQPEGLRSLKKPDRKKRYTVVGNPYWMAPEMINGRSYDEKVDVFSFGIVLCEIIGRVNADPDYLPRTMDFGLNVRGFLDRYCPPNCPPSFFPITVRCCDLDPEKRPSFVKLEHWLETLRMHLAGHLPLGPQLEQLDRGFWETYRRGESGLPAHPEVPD

Columns and labels:
[1] = biological target: P21-activated kinase 4 (human (endogenous in A549 and NCI-H520)) (UniProt O96013); assay: co-IP; A549 or NCI-H520 cell lysates (1 % Triton X-100, 150 mM NaCl, 20 mM Tris-Cl pH 7.4, 4 °C) immunoprecipitated with PAK4 or LIMK1 antibody and Protein G Plus/Protein A-Agarose; western blotting with anti-LIMK1 or anti-PAK4; control IgG
[2] = biological target: LIM kinase 1 (human (endogenous in A549 and NCI-H520)) (UniProt P53667); assay: as above

binding [1]	binding [2]	Substance
binds	–	LIM kinase 1 (from UniProt P53667 1-647)
–	binds	P21-activated kinase 4 (from UniProt O96013 1-591)
